Assay results: the supplement of paper PMC8728848
This is one part of the list.

Tests used:
Experiment in all cases: glycan array binding signal (z-score within array); higher = stronger binding
Settings in all cases: glycan notation: IUPAC condensed, linker removed
[1] = molecular target: Glc(b1-4)Glc
How it was run: (§1)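 Glycan array data were curated from 3228 arrays in the Consortium for Functional Glycomics database and kept only where the protein sequence was available. Glycan names were converted to IUPAC-condensed notation, and columns mapping to the same glycan were averaged. The binding signal is a within-array Z-score, averaged across arrays of the same protein sequence at different concentrations or buffers and across linkers. Negative Z-scores can be read as non-binding.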

[2] = molecular target: Glc(b1-6)Glc
How it was run: as §1

[3] = molecular target: GlcA(b1-3)Gal
How it was run: as §1

[4] = molecular target: GlcA(b1-3)GlcNAc
How it was run: as §1

[5] = molecular target: GlcA(b1-6)Gal
How it was run: as §1

[6] = molecular target: GlcA3S(b1-3)Gal(b1-4)GlcNAc(b1-2)Man
How it was run: as §1

[7] = molecular target: GlcA3S(b1-3)Gal(b1-4)GlcNAc(b1-3)Gal(b1-4)Glc
How it was run: as §1

[8] = molecular target: GlcNAc(a1-3)Gal(b1-4)GlcNAc
How it was run: as §1

[9] = molecular target: GlcNAc(a1-4)Gal(b1-3)GlcNAc
How it was run: as §1

[10] = molecular target: GlcNAc(a1-4)Gal(b1-4)GalNAc
How it was run: as §1

[11] = molecular target: GlcNAc(a1-4)Gal(b1-4)GlcNAc
How it was run: as §1

[12] = molecular target: GlcNAc(a1-4)Gal(b1-4)GlcNAc(b1-3)Gal(b1-4)Glc
How it was run: as §1

[13] = molecular target: GlcNAc(a1-4)Gal(b1-4)GlcNAc(b1-3)Gal(b1-4)GlcNAc
How it was run: as §1

[14] = molecular target: GlcNAc(a1-4)Gal(b1-4)GlcNAc(b1-3)Gal(b1-4)GlcNAc(b1-3)Gal(b1-4)GlcNAc
How it was run: as §1

[15] = molecular target: GlcNAc(a1-4)Gal(b1-4)GlcNAc(b1-3)Gal(b1-4)[Fuc(a1-3)]GlcNAc(b1-3)Gal(b1-4)[Fuc(a1-3)]GlcNAc
How it was run: as §1

[16] = molecular target: GlcNAc(a1-6)Gal(b1-4)GlcNAc
How it was run: as §1

[17] = molecular target: GlcNAc(b1-2)Gal(b1-3)GalNAc
How it was run: as §1

[18] = molecular target: GlcNAc(b1-2)Man(a1-3)[GlcNAc(b1-2)Man(a1-6)]Man(b1-4)GlcNAc(b1-4)GlcNAc
How it was run: as §1

[19] = molecular target: GlcNAc(b1-2)Man(a1-3)[GlcNAc(b1-2)Man(a1-6)]Man(b1-4)GlcNAc(b1-4)[Fuc(a1-6)]GlcNAc
How it was run: as §1

[20] = molecular target: GlcNAc(b1-2)Man(a1-3)[GlcNAc(b1-4)][GlcNAc(b1-2)Man(a1-6)]Man(b1-4)GlcNAc(b1-4)GlcNAc
How it was run: as §1

[21] = molecular target: GlcNAc(b1-2)Man(a1-3)[GlcNAc(b1-4)][GlcNAc(b1-2)Man(a1-6)]Man(b1-4)GlcNAc(b1-4)[Fuc(a1-6)]GlcNAc
How it was run: as §1

[22] = molecular target: GlcNAc(b1-2)[GlcNAc(b1-4)]Man(a1-3)[GlcNAc(b1-2)Man(a1-6)]Man(b1-4)GlcNAc(b1-4)GlcNAc
How it was run: as §1

[23] = molecular target: GlcNAc(b1-2)[GlcNAc(b1-4)]Man(a1-3)[GlcNAc(b1-4)][GlcNAc(b1-2)Man(a1-6)]Man(b1-4)GlcNAc(b1-4)GlcNAc
How it was run: as §1

[24] = molecular target: GlcNAc(b1-2)[GlcNAc(b1-4)]Man(a1-3)[GlcNAc(b1-4)][GlcNAc(b1-2)[GlcNAc(b1-6)]Man(a1-6)]Man(b1-4)GlcNAc(b1-4)GlcNAc
How it was run: as §1

[25] = molecular target: GlcNAc(b1-2)[GlcNAc(b1-4)]Man(a1-3)[GlcNAc(b1-4)][GlcNAc(b1-2)[GlcNAc(b1-6)]Man(a1-6)]Man(b1-4)GlcNAc(b1-4)[Fuc(a1-6)]GlcNAc
How it was run: as §1

[26] = molecular target: GlcNAc(b1-2)[GlcNAc(b1-6)]Man(a1-6)[GlcNAc(b1-2)Man(a1-3)]Man(b1-4)GlcNAc(b1-4)GlcNAc
How it was run: as §1

[27] = molecular target: GlcNAc(b1-2)[GlcNAc(b1-6)]Man(a1-6)[GlcNAc(b1-2)Man(a1-3)]Man(b1-4)GlcNAc(b1-4)[Fuc(a1-6)]GlcNAc
How it was run: as §1

[28] = molecular target: GlcNAc(b1-2)[GlcNAc(b1-6)]Man(a1-6)[GlcNAc(b1-4)][GlcNAc(b1-2)Man(a1-3)]Man(b1-4)GlcNAc(b1-4)GlcNAc
How it was run: as §1

[29] = molecular target: GlcNAc(b1-3)Fuc
How it was run: as §1

[30] = molecular target: GlcNAc(b1-3)Gal
How it was run: as §1

[31] = molecular target: GlcNAc(b1-3)Gal(b1-3)GalNAc
How it was run: as §1

[32] = molecular target: GlcNAc(b1-3)Gal(b1-4)Glc
How it was run: as §1

[33] = molecular target: GlcNAc(b1-3)Gal(b1-4)GlcNAc
How it was run: as §1

[34] = molecular target: GlcNAc(b1-3)Gal(b1-4)GlcNAc(b1-2)Man(a1-3)[GlcNAc(b1-3)Gal(b1-4)GlcNAc(b1-2)Man(a1-6)]Man(b1-4)GlcNAc(b1-4)GlcNAc
How it was run: as §1

[35] = molecular target: GlcNAc(b1-3)Gal(b1-4)GlcNAc(b1-2)Man(a1-3)[GlcNAc(b1-3)Gal(b1-4)GlcNAc(b1-2)Man(a1-6)]Man(b1-4)GlcNAc(b1-4)[Fuc(a1-6)]GlcNAc
How it was run: as §1

[36] = molecular target: GlcNAc(b1-3)Gal(b1-4)GlcNAc(b1-2)[GlcNAc(b1-3)Gal(b1-4)GlcNAc(b1-6)]Man(a1-6)[GlcNAc(b1-3)Gal(b1-4)GlcNAc(b1-2)Man(a1-3)]Man(b1-4)GlcNAc(b1-4)GlcNAc
How it was run: as §1

[37] = molecular target: GlcNAc(b1-3)Gal(b1-4)GlcNAc(b1-3)Gal(b1-4)GlcNAc
How it was run: as §1

[38] = molecular target: GlcNAc(b1-3)Gal(b1-4)GlcNAc(b1-3)Gal(b1-4)GlcNAc(b1-2)Man(a1-3)[GlcNAc(b1-3)Gal(b1-4)GlcNAc(b1-3)Gal(b1-4)GlcNAc(b1-2)Man(a1-6)]Man(b1-4)GlcNAc(b1-4)GlcNAc
How it was run: as §1

[39] = molecular target: GlcNAc(b1-3)Gal(b1-4)GlcNAc(b1-3)Gal(b1-4)GlcNAc(b1-2)Man(a1-3)[GlcNAc(b1-3)Gal(b1-4)GlcNAc(b1-3)Gal(b1-4)GlcNAc(b1-2)Man(a1-6)]Man(b1-4)GlcNAc(b1-4)[Fuc(a1-6)]GlcNAc
How it was run: as §1

[40] = molecular target: GlcNAc(b1-3)Gal(b1-4)GlcNAc(b1-3)Gal(b1-4)GlcNAc(b1-2)[GlcNAc(b1-3)Gal(b1-4)GlcNAc(b1-3)Gal(b1-4)GlcNAc(b1-6)]Man(a1-6)[GlcNAc(b1-3)Gal(b1-4)GlcNAc(b1-3)Gal(b1-4)GlcNAc(b1-2)Man(a1-3)]Man(b1-4)GlcNAc(b1-4)[Fuc(a1-6)]GlcNAc
How it was run: as §1

[41] = molecular target: GlcNAc(b1-3)Gal(b1-4)GlcNAc(b1-3)Gal(b1-4)GlcNAc(b1-3)Gal(b1-4)GlcNAc(b1-2)Man(a1-3)[GlcNAc(b1-3)Gal(b1-4)GlcNAc(b1-3)Gal(b1-4)GlcNAc(b1-3)Gal(b1-4)GlcNAc(b1-2)Man(a1-6)]Man(b1-4)GlcNAc(b1-4)GlcNAc
How it was run: as §1

[42] = molecular target: GlcNAc(b1-3)Gal(b1-4)GlcNAc(b1-3)Gal(b1-4)GlcNAc(b1-3)Gal(b1-4)GlcNAc(b1-2)Man(a1-3)[GlcNAc(b1-3)Gal(b1-4)GlcNAc(b1-3)Gal(b1-4)GlcNAc(b1-3)Gal(b1-4)GlcNAc(b1-2)Man(a1-6)]Man(b1-4)GlcNAc(b1-4)[Fuc(a1-6)]GlcNAc
How it was run: as §1

[43] = molecular target: GlcNAc(b1-3)Gal(b1-4)GlcNAc(b1-3)Gal(b1-4)GlcNAc(b1-3)Gal(b1-4)GlcNAc(b1-2)[GlcNAc(b1-3)Gal(b1-4)GlcNAc(b1-3)Gal(b1-4)GlcNAc(b1-3)Gal(b1-4)GlcNAc(b1-6)]Man(a1-6)[GlcNAc(b1-3)Gal(b1-4)GlcNAc(b1-3)Gal(b1-4)GlcNAc(b1-3)Gal(b1-4)GlcNAc(b1-2)Man(a1-3)]Man(b1-4)GlcNAc(b1-4)[Fuc(a1-6)]GlcNAc
How it was run: as §1

[44] = molecular target: GlcNAc(b1-3)Gal(b1-4)GlcNAc(b1-3)Gal(b1-4)GlcNAc(b1-3)Gal(b1-4)GlcNAc(b1-3)Gal(b1-4)GlcNAc(b1-2)Man(a1-3)[GlcNAc(b1-3)Gal(b1-4)GlcNAc(b1-3)Gal(b1-4)GlcNAc(b1-3)Gal(b1-4)GlcNAc(b1-3)Gal(b1-4)GlcNAc(b1-2)Man(a1-6)]Man(b1-4)GlcNAc(b1-4)GlcNAc
How it was run: as §1

[45] = molecular target: GlcNAc(b1-3)Gal(b1-4)GlcNAc(b1-3)Gal(b1-4)GlcNAc(b1-3)Gal(b1-4)GlcNAc(b1-3)Gal(b1-4)GlcNAc(b1-2)Man(a1-3)[GlcNAc(b1-3)Gal(b1-4)GlcNAc(b1-3)Gal(b1-4)GlcNAc(b1-3)Gal(b1-4)GlcNAc(b1-3)Gal(b1-4)GlcNAc(b1-2)Man(a1-6)]Man(b1-4)GlcNAc(b1-4)[Fuc(a1-6)]GlcNAc
How it was run: as §1

B1: DCIR1 (Mus musculus), Q9QZ15 (protein)
chain: MASEITYAEVKFKNESNSLHTYSESPAAPREKPIRDLRKPGSPSLLLTSLMLLLLLLAITFLVAFIIYFQKYSQLLEEKKAAKNIMHNELNCTKSVSPMEDKVWSCCPKDWRLFGSHCYLVPTVSSSASWNKSEENCSRMGAHLVVIQSQEEQDFITGILDTHAAYFIGLWDTGHRQWQWVDQTPYEESITFWHNGEPSSGNEKCATIIYRWKTGWGWNDISCSLKQKSVCQMKKINL
glycan array binding signal (z-score) [1]: 0.278
glycan array binding signal (z-score) [2]: 0.81
glycan array binding signal (z-score) [3]: 0.644
glycan array binding signal (z-score) [4]: -0.507
glycan array binding signal (z-score) [5]: 0.627
glycan array binding signal (z-score) [6]: -0.599
glycan array binding signal (z-score) [7]: -0.974
glycan array binding signal (z-score) [8]: -0.488
glycan array binding signal (z-score) [9]: -0.108
glycan array binding signal (z-score) [10]: 1.16
glycan array binding signal (z-score) [11]: -0.438
glycan array binding signal (z-score) [12]: 0.014
glycan array binding signal (z-score) [13]: -1.06
glycan array binding signal (z-score) [14]: -1.1
glycan array binding signal (z-score) [15]: 0.243
glycan array binding signal (z-score) [16]: -0.776
glycan array binding signal (z-score) [17]: 0.053
glycan array binding signal (z-score) [18]: -0.579
glycan array binding signal (z-score) [19]: -0.299
glycan array binding signal (z-score) [20]: -0.773
glycan array binding signal (z-score) [21]: -0.538
glycan array binding signal (z-score) [22]: -0.791
glycan array binding signal (z-score) [23]: -0.101
glycan array binding signal (z-score) [24]: -1.03
glycan array binding signal (z-score) [25]: -0.971
glycan array binding signal (z-score) [26]: -0.651
glycan array binding signal (z-score) [27]: -0.244
glycan array binding signal (z-score) [28]: -0.4
glycan array binding signal (z-score) [29]: -0.74
glycan array binding signal (z-score) [30]: -0.363
glycan array binding signal (z-score) [31]: -0.743
glycan array binding signal (z-score) [32]: -0.965
glycan array binding signal (z-score) [33]: -0.87
glycan array binding signal (z-score) [34]: 0.294
glycan array binding signal (z-score) [35]: 0.199
glycan array binding signal (z-score) [36]: -0.372
glycan array binding signal (z-score) [37]: -0.979
glycan array binding signal (z-score) [38]: 0.855
glycan array binding signal (z-score) [39]: -0.898
glycan array binding signal (z-score) [40]: -0.77
glycan array binding signal (z-score) [41]: 0.444
glycan array binding signal (z-score) [42]: -0.473
glycan array binding signal (z-score) [43]: -0.73
glycan array binding signal (z-score) [44]: 0.307
glycan array binding signal (z-score) [45]: -1.03
